Results are given in words; binding and its absence hold for the method and conditions named. In cells and extracts the contact can be indirect. Some results given as binding are weak or reduced against the parent protein; the word gives no strength.
Molecular target: His-StTai4 (type VI amidase immunity 4 from Salmonella typhimurium) (S. typhimurium) (UniProt Q8ZRL5)
Assay: pull-down; His-tagged immunity protein on Ni beads, 277 K, 15 min; native effector proteins loaded; washed with 20 mM imidazole, eluted with 250 mM imidazole; SDS-PAGE, Coomassie blue

## EcTae4 (type VI amidase effector 4 from Enterobacter cloacae) (from UniProt A0A0H3CIJ2 1-163) (enzyme)
  binding: binds

Source: article PMC3759425, “Insights into the Cross-Immunity Mechanism within Effector Families of Bacteria Type VI Secretion System from the Structure of StTae4-EcTai4 Complex” (PLoS ONE, 2013)
